From the supplement of paper PMC10849652
Some of the results follow.

Amino acid sequences for entries named in this document (tags omitted). A change or cut given only in a name is not applied to a line headed by its entry.
UniProt Q7Z417: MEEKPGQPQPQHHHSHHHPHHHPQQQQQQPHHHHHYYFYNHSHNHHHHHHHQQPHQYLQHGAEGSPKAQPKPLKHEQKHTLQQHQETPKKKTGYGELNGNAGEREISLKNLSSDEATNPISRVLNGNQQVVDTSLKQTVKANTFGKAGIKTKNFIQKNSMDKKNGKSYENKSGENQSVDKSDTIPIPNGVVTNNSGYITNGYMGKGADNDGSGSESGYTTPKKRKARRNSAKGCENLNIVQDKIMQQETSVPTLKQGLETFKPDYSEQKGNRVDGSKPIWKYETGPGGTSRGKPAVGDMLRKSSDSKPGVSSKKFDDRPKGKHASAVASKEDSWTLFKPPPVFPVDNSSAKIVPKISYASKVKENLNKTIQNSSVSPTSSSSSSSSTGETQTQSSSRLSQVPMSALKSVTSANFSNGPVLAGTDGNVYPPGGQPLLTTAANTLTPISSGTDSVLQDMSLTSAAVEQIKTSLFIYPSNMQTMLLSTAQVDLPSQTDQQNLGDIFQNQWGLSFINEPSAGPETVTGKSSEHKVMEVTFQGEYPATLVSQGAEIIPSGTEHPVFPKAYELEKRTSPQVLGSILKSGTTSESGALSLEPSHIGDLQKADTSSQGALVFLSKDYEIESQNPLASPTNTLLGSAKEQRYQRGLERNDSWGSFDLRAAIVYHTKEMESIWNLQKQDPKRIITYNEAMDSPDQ
UniProt Q9BSC4: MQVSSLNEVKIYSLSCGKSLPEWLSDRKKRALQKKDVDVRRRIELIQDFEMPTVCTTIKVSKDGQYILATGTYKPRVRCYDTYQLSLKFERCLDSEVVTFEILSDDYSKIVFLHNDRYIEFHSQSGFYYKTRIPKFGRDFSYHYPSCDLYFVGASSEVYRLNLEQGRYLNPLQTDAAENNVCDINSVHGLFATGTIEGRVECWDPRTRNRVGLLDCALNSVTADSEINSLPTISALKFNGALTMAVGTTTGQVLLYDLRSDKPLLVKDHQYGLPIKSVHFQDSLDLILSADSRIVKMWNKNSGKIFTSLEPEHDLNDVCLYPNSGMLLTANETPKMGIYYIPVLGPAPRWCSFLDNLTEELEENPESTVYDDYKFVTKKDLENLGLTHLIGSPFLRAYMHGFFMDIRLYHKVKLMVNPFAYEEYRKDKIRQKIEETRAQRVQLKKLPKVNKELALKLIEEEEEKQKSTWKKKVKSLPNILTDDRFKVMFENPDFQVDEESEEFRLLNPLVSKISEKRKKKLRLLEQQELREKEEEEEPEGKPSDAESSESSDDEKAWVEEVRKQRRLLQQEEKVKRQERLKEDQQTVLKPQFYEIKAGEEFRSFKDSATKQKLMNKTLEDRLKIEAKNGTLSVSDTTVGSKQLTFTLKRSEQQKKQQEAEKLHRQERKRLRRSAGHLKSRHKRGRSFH
UniProt Q86WQ0: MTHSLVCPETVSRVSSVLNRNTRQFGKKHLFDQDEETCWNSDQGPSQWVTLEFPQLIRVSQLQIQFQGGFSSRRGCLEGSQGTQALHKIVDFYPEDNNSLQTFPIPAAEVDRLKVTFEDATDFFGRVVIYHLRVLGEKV
UniProt Q8WUM0: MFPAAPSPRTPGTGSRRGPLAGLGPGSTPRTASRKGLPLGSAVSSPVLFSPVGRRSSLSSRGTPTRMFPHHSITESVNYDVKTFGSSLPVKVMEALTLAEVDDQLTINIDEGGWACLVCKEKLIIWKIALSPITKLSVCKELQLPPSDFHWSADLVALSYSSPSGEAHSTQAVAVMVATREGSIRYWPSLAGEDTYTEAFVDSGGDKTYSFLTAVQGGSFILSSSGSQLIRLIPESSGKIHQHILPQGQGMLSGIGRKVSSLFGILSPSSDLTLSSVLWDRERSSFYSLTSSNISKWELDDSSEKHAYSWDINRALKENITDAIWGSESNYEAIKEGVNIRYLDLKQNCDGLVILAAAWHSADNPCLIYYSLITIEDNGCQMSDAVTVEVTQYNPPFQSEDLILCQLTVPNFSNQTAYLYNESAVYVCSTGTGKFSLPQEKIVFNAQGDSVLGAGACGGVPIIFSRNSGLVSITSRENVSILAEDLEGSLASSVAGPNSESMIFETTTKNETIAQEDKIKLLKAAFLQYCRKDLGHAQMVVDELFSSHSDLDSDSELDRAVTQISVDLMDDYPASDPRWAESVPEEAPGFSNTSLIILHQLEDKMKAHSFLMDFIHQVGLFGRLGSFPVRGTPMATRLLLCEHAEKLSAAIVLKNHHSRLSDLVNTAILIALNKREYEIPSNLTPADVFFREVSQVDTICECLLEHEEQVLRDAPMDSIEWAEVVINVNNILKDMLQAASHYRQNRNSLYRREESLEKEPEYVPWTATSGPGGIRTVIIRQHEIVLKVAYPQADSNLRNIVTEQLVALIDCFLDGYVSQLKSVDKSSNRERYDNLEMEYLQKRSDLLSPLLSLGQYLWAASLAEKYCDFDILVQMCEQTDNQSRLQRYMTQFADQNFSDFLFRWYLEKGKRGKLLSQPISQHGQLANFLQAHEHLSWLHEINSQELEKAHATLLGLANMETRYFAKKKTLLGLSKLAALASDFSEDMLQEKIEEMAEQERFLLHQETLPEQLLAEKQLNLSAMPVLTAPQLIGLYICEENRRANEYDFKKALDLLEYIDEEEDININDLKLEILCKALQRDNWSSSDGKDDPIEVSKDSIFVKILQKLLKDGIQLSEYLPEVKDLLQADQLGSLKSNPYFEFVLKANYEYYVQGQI
UniProt P61916: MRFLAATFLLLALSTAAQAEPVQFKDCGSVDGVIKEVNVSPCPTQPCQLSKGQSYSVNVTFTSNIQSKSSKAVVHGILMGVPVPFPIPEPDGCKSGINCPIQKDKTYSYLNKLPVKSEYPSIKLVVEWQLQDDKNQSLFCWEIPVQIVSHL
UniProt Q14980: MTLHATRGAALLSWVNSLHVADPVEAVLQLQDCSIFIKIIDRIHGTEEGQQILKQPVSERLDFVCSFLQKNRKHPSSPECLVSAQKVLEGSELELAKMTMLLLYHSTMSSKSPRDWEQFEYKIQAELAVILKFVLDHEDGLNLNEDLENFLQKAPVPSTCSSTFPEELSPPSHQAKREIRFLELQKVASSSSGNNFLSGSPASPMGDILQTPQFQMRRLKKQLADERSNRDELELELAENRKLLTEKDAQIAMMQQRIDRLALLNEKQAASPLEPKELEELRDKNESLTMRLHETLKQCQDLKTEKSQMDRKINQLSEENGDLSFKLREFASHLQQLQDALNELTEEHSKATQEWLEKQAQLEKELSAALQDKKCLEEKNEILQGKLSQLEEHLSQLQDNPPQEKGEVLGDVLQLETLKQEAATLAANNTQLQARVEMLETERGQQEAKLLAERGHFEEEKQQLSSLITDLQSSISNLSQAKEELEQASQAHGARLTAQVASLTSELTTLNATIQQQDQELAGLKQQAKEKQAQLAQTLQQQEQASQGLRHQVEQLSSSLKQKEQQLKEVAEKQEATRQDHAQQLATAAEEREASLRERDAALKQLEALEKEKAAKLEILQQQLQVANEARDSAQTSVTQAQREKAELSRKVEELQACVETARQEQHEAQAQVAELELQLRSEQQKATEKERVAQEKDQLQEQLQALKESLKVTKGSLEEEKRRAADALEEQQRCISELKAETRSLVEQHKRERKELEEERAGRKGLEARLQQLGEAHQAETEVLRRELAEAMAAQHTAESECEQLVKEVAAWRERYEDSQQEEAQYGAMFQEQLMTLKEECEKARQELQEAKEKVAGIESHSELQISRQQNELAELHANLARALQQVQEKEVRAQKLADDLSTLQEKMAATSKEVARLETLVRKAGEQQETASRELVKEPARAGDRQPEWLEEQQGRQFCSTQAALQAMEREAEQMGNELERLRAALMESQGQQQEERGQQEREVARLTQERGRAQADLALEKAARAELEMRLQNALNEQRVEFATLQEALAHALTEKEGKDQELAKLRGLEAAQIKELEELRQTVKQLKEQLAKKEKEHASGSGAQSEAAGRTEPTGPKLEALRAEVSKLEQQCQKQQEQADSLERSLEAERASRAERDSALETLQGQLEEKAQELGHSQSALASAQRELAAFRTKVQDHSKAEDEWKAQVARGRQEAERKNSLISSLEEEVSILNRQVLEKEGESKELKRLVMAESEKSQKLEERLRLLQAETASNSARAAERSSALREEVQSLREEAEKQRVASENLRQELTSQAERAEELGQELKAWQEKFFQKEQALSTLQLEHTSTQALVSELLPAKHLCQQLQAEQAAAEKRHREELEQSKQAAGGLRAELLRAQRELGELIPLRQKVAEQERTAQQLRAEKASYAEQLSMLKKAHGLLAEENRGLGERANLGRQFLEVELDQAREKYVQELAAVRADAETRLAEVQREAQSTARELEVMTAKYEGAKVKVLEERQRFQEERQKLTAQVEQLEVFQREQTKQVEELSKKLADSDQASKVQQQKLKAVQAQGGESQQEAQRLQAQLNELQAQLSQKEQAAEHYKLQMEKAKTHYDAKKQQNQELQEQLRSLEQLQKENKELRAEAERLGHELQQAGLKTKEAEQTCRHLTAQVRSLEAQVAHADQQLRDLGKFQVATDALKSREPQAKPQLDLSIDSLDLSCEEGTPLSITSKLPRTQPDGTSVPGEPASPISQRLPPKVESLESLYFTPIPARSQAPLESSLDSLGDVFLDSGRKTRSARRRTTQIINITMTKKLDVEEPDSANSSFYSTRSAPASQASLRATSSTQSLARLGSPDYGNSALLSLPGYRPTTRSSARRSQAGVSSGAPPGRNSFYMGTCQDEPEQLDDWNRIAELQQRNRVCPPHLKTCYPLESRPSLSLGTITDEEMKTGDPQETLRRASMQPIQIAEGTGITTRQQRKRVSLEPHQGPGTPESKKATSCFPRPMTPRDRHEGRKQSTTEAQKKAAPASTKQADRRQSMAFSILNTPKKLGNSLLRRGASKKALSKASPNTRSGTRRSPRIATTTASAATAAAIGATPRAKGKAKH
UniProt P49790, whole entry, looked up: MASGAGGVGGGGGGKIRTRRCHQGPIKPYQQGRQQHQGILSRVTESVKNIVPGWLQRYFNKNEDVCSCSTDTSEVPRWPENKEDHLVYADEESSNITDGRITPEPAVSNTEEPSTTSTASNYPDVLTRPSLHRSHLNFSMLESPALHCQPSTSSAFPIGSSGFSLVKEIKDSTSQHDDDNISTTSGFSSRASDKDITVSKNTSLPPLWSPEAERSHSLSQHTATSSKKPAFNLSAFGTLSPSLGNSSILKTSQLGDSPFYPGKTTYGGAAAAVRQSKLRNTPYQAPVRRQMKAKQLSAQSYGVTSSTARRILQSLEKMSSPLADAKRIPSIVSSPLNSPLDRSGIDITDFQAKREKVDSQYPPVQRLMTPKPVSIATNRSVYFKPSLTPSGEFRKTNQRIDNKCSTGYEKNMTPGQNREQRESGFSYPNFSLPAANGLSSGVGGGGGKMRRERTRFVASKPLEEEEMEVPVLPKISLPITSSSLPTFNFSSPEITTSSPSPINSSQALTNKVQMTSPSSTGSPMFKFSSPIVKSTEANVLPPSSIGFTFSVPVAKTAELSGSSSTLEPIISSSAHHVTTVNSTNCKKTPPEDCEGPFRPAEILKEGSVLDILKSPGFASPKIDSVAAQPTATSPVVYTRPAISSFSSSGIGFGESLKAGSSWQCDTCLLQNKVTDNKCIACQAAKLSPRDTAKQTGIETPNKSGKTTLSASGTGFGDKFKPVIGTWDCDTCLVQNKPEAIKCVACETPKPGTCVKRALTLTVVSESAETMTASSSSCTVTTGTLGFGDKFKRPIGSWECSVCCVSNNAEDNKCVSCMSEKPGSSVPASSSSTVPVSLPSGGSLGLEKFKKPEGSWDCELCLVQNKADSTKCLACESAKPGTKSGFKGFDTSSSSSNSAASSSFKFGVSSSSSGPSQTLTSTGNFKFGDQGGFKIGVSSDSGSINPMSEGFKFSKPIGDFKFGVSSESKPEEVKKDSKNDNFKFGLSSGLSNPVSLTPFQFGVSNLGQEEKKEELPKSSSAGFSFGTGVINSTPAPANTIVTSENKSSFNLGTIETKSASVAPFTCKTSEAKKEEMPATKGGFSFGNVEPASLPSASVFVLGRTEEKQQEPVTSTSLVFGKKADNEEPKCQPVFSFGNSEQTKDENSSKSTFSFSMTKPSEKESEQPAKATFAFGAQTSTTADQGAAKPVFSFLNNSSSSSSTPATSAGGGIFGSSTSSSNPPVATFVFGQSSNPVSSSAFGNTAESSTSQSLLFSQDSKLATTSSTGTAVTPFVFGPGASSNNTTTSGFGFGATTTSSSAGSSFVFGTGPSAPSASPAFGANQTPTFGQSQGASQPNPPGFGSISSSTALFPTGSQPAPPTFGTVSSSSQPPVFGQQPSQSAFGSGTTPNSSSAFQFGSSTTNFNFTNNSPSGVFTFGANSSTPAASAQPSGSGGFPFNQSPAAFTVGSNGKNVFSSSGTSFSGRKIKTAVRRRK
UniProt Q92686, whole entry, looked up: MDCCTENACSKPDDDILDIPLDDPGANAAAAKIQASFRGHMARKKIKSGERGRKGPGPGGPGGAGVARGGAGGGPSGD

Experiments:
Assay in all cases: log2 fold change, soluble protein after heating vs DMSO (PISA); higher = thermal stabilisation; K562 lysate, 10 uM; active = over 0.2 and 3.5 SD of the protein, either way, in both replicates (recomputed)
nilotinib = compound: Cc1cn(-c2cc(NC(=O)c3ccc(C)c(Nc4nccc(-c5cccnc5)n4)c3)cc(C(F)(F)F)c2)cn1 [nilotinib]
Procedure, shortened: (§1)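 Thermal stability, expressed as log-two fold change relative to solvent controls, is given from duplicates. Crude K562 extract in PBS pH 7.4 with 1 mM MgCl2, at 1 mg/mL protein, was treated with 10 μM compound for 30 min and heated in aliquots for 3 min across 48°C-58°C. After pooling, adjustment to 0.5% NP-40 at 4°C and centrifugation at 21,000xg for 90 min, supernatant protein was measured by TMTpro 16plex LC-MS/MS with channel sums equalised.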

[1] = compound: Cc1nc(Nc2n[nH]c3c2CN(C(=O)N[C@H](CN(C)C)c2ccccc2)C3(C)C)c2sccc2n1
Procedure, shortened: as §1

dasatinib = compound: Cc1nc(Nc2ncc(C(=O)Nc3c(C)cccc3Cl)s2)cc(N2CCN(CCO)CC2)n1 [dasatinib]
Procedure, shortened: as §1

[2] = compound: Cc1ncc(-c2ccnc(Nc3ccc(S(C)(=O)=O)cc3)n2)n1C(C)C
Procedure, shortened: as §1

[3] = compound: Cn1cc(-c2ccc3c(c2)CCN3C(=O)Cc2cccc(C(F)(F)F)c2)c2c(N)ncnc21
Procedure, shortened: as §1

quisinostat = compound: Cn1cc(CNCC2CCN(c3ncc(C(=O)NO)cn3)CC2)c2ccccc21 [quisinostat]
Procedure, shortened: as §1

tipifarnib = compound: Cn1cncc1[C@@](N)(c1ccc(Cl)cc1)c1ccc2c(c1)c(-c1cccc(Cl)c1)cc(=O)n2C [tipifarnib]
Procedure, shortened: as §1

[4] = compound: NC(=O)Nc1cc(-c2cccc(F)c2)sc1C(=O)N[C@H]1CCCNC1
Procedure, shortened: as §1

[5] = compound: NC(=O)c1cnc(N[C@@H]2CCCC[C@@H]2N)nc1Nc1cccc(-n2nccn2)c1
Procedure, shortened: as §1

[6] = compound: NC1(c2ccc(-c3nc4ccn5c(=O)[nH]nc5c4cc3-c3ccccc3)cc2)CCC1
Procedure, shortened: as §1

[7] = compound: NCC(=O)Nc1ccc(-n2nc(C(F)(F)F)cc2-c2ccc3c(ccc4ccccc43)c2)cc1
Procedure, shortened: as §1

vorinostat = compound: O=C(CCCCCCC(=O)Nc1ccccc1)NO [vorinostat]
Procedure, shortened: as §1

silmitasertib = compound: O=C(O)c1ccc2c(c1)nc(Nc1cccc(Cl)c1)c1ccncc12 [silmitasertib]
Procedure, shortened: as §1

[8] = compound: O=C1NC(=O)C(c2cnc3ccccn23)=C1c1cn2c3c(cc(F)cc13)CN(C(=O)N1CCCCC1)CC2
Procedure, shortened: as §1

entospletinib = compound: c1cn2cc(-c3ccc4cn[nH]c4c3)nc(Nc3ccc(N4CCOCC4)cc3)c2n1 [entospletinib]
Procedure, shortened: as §1

Measured: log2 fold change

NT5DC3 (UniProt Q86UY8)
inactive: nilotinib -0.01 | [1] 0.008 | dasatinib 0.037 | [2] 0.044 | [3] 0.024 | quisinostat -0.046 | tipifarnib 0.003 | [4] 0.007 | [5] -0.002 | [6] -0.016 | [7] 0.001 | vorinostat 0.117 | silmitasertib 0 | [8] -0.059 | entospletinib -0.026

NUFIP2 (UniProt Q7Z417)
inactive: nilotinib -0.015 | [1] 0 | dasatinib 0.001 | [2] -0.001 | [3] -0.033 | quisinostat -0.029 | tipifarnib -0.018 | [4] 0.018 | [5] -0.004 | [6] -0.001 | [7] -0.008 | vorinostat -0.08 | silmitasertib -0.004 | [8] 0.017 | entospletinib 0

NOSTRIN (UniProt Q8IVI9)
inactive: nilotinib -0.015 | [1] -0.02 | dasatinib -0.022 | [2] 0.03 | [3] 0.01 | quisinostat -0.031 | tipifarnib -0.008 | [4] 0.01 | [5] -0.018 | [6] 0.064 | [7] -0.083 | silmitasertib 0.028 | [8] 0.019 | entospletinib 0.018
active: vorinostat -0.27

NPLOC4 isoform 2 (UniProt Q8TAT6)
inactive: nilotinib -0.005 | [1] 0.007 | dasatinib 0.019 | [2] 0.007 | [3] 0.004 | quisinostat -0.037 | tipifarnib 0 | [4] -0.006 | [5] 0.018 | [6] -0.023 | [7] 0 | vorinostat 0.028 | silmitasertib -0.016 | [8] 0.018 | entospletinib 0.031

NOL10 (UniProt Q9BSC4)
inactive: nilotinib -0.17 | [1] -0.096 | dasatinib -0.025 | [2] 0.022 | [3] 0.077 | quisinostat 0.006 | tipifarnib 0.038 | [4] 0.019 | [5] 0.007 | [6] 0.175 | [7] -0.046 | vorinostat -0.303 | silmitasertib -0.147 | [8] -0.054 | entospletinib 0.049

NRDC isoform 2 (UniProt O43847)
inactive: nilotinib 0.001 | [1] 0 | dasatinib -0.013 | [2] 0.007 | [3] 0.005 | quisinostat 0.007 | tipifarnib 0.005 | [4] 0.007 | [5] -0.01 | [6] 0.002 | [7] -0.016 | vorinostat 0.005 | silmitasertib -0.012 | [8] -0.003 | entospletinib 0.006

NMT2 (UniProt O60551)
inactive: nilotinib -0.003 | [1] -0.015 | dasatinib -0.018 | [2] -0.019 | [3] -0.007 | quisinostat -0.063 | tipifarnib 0.013 | [4] 0.025 | [5] -0.017 | [6] -0.035 | [7] -0.065 | vorinostat -0.01 | silmitasertib -0.015 | [8] -0.038 | entospletinib 0.015

NUCB1 (UniProt Q02818)
inactive: nilotinib 0.024 | [1] 0.003 | dasatinib 0.019 | [2] 0.004 | [3] 0.007 | quisinostat -0.025 | tipifarnib 0.007 | [4] -0.004 | [5] -0.02 | [6] 0.022 | [7] 0.022 | vorinostat 0.08 | silmitasertib -0.02 | [8] -0.015 | entospletinib -0.037

NR2C2AP isoform 2 (UniProt Q86WQ0)
inactive: nilotinib -0.007 | [1] -0.007 | dasatinib -0.041 | [2] -0.032 | [3] -0.002 | quisinostat 0.033 | tipifarnib 0.07 | [4] -0.01 | [5] -0.008 | [6] 0.054 | [7] 0.021 | vorinostat -0.101 | silmitasertib 0.029 | [8] -0.029 | entospletinib -0.066

NME7 (UniProt Q9Y5B8)
inactive: nilotinib -0.085 | [1] 0.085 | dasatinib -0.014 | [2] -0.031 | [3] 0.022 | quisinostat -0.037 | tipifarnib 0.061 | [4] 0.049 | [5] -0.003 | [6] -0.036 | [7] 0.002 | vorinostat -0.136 | silmitasertib -0.001 | [8] 0.007 | entospletinib -0.001

NUP133 (UniProt Q8WUM0)
inactive: nilotinib 0.023 | [1] -0.006 | dasatinib -0.026 | [2] 0.019 | [3] 0.056 | quisinostat -0.092 | tipifarnib -0.039 | [4] 0.006 | [5] 0.005 | [6] -0.016 | [7] 0.045 | vorinostat -0.195 | silmitasertib 0.052 | [8] 0.011 | entospletinib -0.033

NPC2 (UniProt P61916)
inactive: nilotinib -0.074 | [1] 0.019 | dasatinib -0.059 | [2] 0.051 | [3] 0.012 | quisinostat -0.235 | tipifarnib -0.015 | [4] 0.031 | [5] -0.007 | [6] -0.016 | [7] -0.031 | vorinostat 0.119 | silmitasertib -0.007 | [8] 0.049 | entospletinib 0.161

NUMB (UniProt P49757)
inactive: nilotinib -0.03 | [1] -0.024 | dasatinib -0.072 | [2] -0.008 | [3] 0.001 | quisinostat -0.02 | tipifarnib 0.001 | [4] -0.029 | [5] -0.026 | [6] 0.003 | [7] 0 | silmitasertib -0.014 | [8] -0.066 | entospletinib 0
active: vorinostat -0.315

NME6 (UniProt O75414)
inactive: nilotinib 0.034 | [1] 0.074 | dasatinib -0.002 | [2] 0.042 | [3] 0.001 | quisinostat -0.02 | tipifarnib -0.001 | [4] -0.04 | [5] -0.073 | [6] -0.032 | [7] 0.045 | vorinostat 0.062 | silmitasertib -0.01 | [8] -0.022 | entospletinib -0.12

NUMA1 (UniProt Q14980)
inactive: nilotinib 0.002 | [1] -0.062 | dasatinib -0.006 | [2] -0.001 | [3] 0.056 | quisinostat -0.066 | tipifarnib -0.007 | [4] 0.01 | [5] 0.006 | [6] 0.016 | [7] -0.028 | vorinostat -0.152 | silmitasertib 0.018 | [8] -0.013 | entospletinib 0.006

NUP153 (UniProt P49790)
inactive: nilotinib -0.01 | [1] 0.014 | dasatinib -0.005 | [2] 0.029 | [3] 0.009 | quisinostat 0.013 | tipifarnib -0.023 | [4] -0.016 | [5] 0.007 | [6] 0.025 | [7] 0.017 | vorinostat -0.04 | silmitasertib -0.016 | [8] -0.016 | entospletinib -0.028

NRGN (UniProt Q92686)
inactive: nilotinib 0.032 | [1] -0.003 | dasatinib 0.117 | [2] 0.094 | [3] 0.037 | quisinostat -0.051 | tipifarnib 0.013 | [4] 0.092 | [8] -0.052

NSF (UniProt P46459)
inactive: nilotinib -0.002 | [1] 0.011 | dasatinib -0.014 | [2] -0.016 | [3] 0.01 | quisinostat 0.012 | tipifarnib -0.02 | [4] 0.014 | [5] 0.01 | [6] 0.004 | [7] -0.006 | vorinostat -0.176 | silmitasertib 0.018 | [8] -0.011 | entospletinib 0.022

NUFIP1 (UniProt Q9UHK0)
inactive: nilotinib -0.086 | [1] 0.056 | dasatinib -0.025 | [2] 0.076 | [3] -0.042 | quisinostat -0.102 | tipifarnib -0.069 | [4] 0.097 | [8] 0.014 | entospletinib 0.118

NOMO1 (UniProt Q15155)
inactive: nilotinib 0.084 | [1] -0.058 | dasatinib -0.161 | [2] -0.04 | [3] -0.02 | quisinostat 0.011 | tipifarnib 0.224 | [4] -0.055 | [5] 0.028 | [6] 0.007 | vorinostat 0.138 | silmitasertib 0.148 | [8] 0.018 | entospletinib -0.156

NRIP1 (UniProt P48552)
inactive: nilotinib 0.035 | [1] -0.127 | dasatinib 0.135 | [2] 0.035 | [3] 0 | quisinostat -0.437 | tipifarnib -0.03 | [4] 0.083 | [5] 0.022 | [6] -0.048 | vorinostat 0.274 | silmitasertib 0 | [8] 0.06

NUCB2 (UniProt P80303)
inactive: nilotinib -0.016 | [1] 0.015 | dasatinib 0.007 | [2] -0.019 | [3] -0.009 | quisinostat 0.016 | tipifarnib 0.011 | [4] -0.003 | [5] -0.001 | [6] 0.014 | [7] 0 | vorinostat 0.133 | silmitasertib -0.026 | [8] -0.007 | entospletinib -0.008

Copied from the results shown (2 entries):
NRGN (UniProt Q92686)
inactive: nilotinib 0.032 | [1] -0.003 | dasatinib 0.117 | [2] 0.094 | [3] 0.037 | quisinostat -0.051 | tipifarnib 0.013 | [4] 0.092 | [8] -0.052

NSF (UniProt P46459)
inactive: nilotinib -0.002 | [1] 0.011 | dasatinib -0.014 | [2] -0.016 | [3] 0.01 | quisinostat 0.012 | tipifarnib -0.02 | [4] 0.014 | [5] 0.01 | [6] 0.004 | [7] -0.006 | vorinostat -0.176 | silmitasertib 0.018 | [8] -0.011 | entospletinib 0.022
